Measurements from the supplement of paper PMC10727501.
Some of the results follow. Single values are uncertain here, since repeats match poorly.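 Free-swimming zebrafish larvae were assessed for O-bend response probability to dark flashes (naive: first five; training: remaining flashes across four 60-flash blocks; test: later 60-flash block) and for OMR turning toward alternating leftward/rightward LED motion. Six treated larvae were compared against sixty 0.1% DMSO controls; hits required |SSMD|≥2.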

Experiments:
Conditions in all cases: 10 µM; pre-incubation: 30-90 min
[1] = tested on: Danio rerio larvae (5 dpf, TLF); assay: OMR-Perf (SSMD vs DMSO vehicle); higher = higher than vehicle (e.g. higher dark-flash O-bend response probability, or better optomotor performance)
[2] = tested on: Danio rerio larvae (5 dpf, TLF); assay: Prob-Test (SSMD vs DMSO vehicle); higher = higher than vehicle (e.g. higher dark-flash O-bend response probability, or better optomotor performance)
[3] = tested on: Danio rerio larvae (5 dpf, TLF); assay: Prob-Naive (SSMD vs DMSO vehicle); higher = higher than vehicle (e.g. higher dark-flash O-bend response probability, or better optomotor performance)
[4] = tested on: Danio rerio larvae (5 dpf, TLF); assay: Prob-Train (SSMD vs DMSO vehicle); higher = higher than vehicle (e.g. higher dark-flash O-bend response probability, or better optomotor performance)

Row | Compound | OMR-Perf [1] | Prob-Test [2] | Prob-Naive [3] | Prob-Train [4]
1 | COc1cccc2c1C(=O)c1c(O)c3c(c(O)c1C2=O)C[C@@](O)(C(=O)CO)C[C@H]3O[C@H]1C[C@H](N)[C@H](O)[C@H](C)O1.Cl [Doxorubicin (Adriamycin)] | 0.0748 | 0.257 | 0.454 | 0.404
2 | CCCCC(=O)O[C@@H]1CC[C@H]2[C@@H]3CCc4cc(O)ccc4[C@@H]3CC[C@]12C [Estradiol valerate] | -0.489 | -0.911 | -0.134 | -2.03
3 | C[C@H](C(=O)O)c1ccc(-c2ccccc2)c(F)c1 [Flurbiprofen] | -0.326 | -1.07 | -0.633 | -0.723
4 | Cc1cccc(-c2n[nH]cc2-c2ccc3ncccc3n2)n1 | -0.279 | -0.531 | -0.29 | 0.0618
5 | COc1cc(CCc2cc(NC(=O)c3ccc(N4C[C@@H](C)N[C@@H](C)C4)cc3)n[nH]2)cc(OC)c1 | 0.878 | 1.26 | 0.319 | 0.955
6 | C[N+](C)(C)CCCCCC[N+](C)(C)C.[Br-].[Br-] [Hexamethonium bromide] | -0.369 | 0.62 | -0.288 | 0.928
7 | C[C@@H]1O[C@@H](Oc2c(-c3cc(O)c(O)c(O)c3)oc3cc(O)cc(O)c3c2=O)[C@@H](O)[C@H](O)[C@H]1O [Myricitrin] | -0.958 | 0.189 | 0.139 | -0.146
8 | CN(CCOc1ccc(NS(C)(=O)=O)cc1)CCc1ccc(NS(C)(=O)=O)cc1 [Dofetilide] | -0.716 | -0.513 | 0.471 | -0.311
9 | O=C1c2ccccc2C(=O)C1c1ccccc1 [Phenindione] | -0.431 | 0.045 | 0.375 | -0.702
10 | Oc1cc(O)cc(/C=C/c2ccc(O)c(O)c2)c1 [Piceatannol] | -0.379 | -0.0634 | -0.343 | -0.124
11 | CC(=O)OCC(=O)[C@@]1(O)CC[C@H]2[C@@H]3CCC4=CC(=O)C=C[C@]4(C)[C@@]3(Cl)[C@@H](Cl)C[C@@]21C [Dichlorisone Acetate] | 0.564 | 0.224 | 0.444 | -0.43
12 | O=C(Nc1cccc(Nc2ncc(Br)c(NCCc3cnc[nH]3)n2)c1)N1CCCC1 | 0.327 | 0.382 | 0.252 | 0.412
13 | CC(C)NCC(O)c1ccc(NS(C)(=O)=O)cc1.Cl (stereo unspecified) [Sotalol] | 0.22 | -0.0514 | -0.558 | -0.32
14 | CC(C(=O)O)c1ccc(C(=O)c2cccs2)cc1 (stereo unspecified) [Suprofen] | 0.216 | 0.239 | -0.224 | 0.106
15 | Cl.Clc1cccc(Cl)c1NC1=NCCN1 [Clonidine HCl] | -0.45 | -0.775 | -0.354 | -0.889
16 | CC(C)(C)C#Cc1cc(N(C(=O)[C@H]2CC[C@H](C)CC2)[C@H]2CC[C@@H](O)CC2)c(C(=O)O)s1 [VX-222 (VCH-222, Lomibuvir)] | 0.361 | 0.358 | -0.157 | 0.616
17 | CN(C)[C@@H]1C(=O)C(C(=O)NCN2CCCC2)=C(O)[C@@]2(O)C(=O)C3=C(O)c4c(O)cccc4[C@@](C)(O)[C@H]3C[C@@H]12 [Rolitetracycline] | -0.502 | 0.00522 | 0.0912 | -0.184
18 | CC(C)OC(=O)C(C(=O)OC(C)C)=C1SC=CS1 [Malotilate] | -0.046 | -1.34 | -2.12 | -1.65
19 | O=c1oc2cc(O)ccc2s1 [Tioxolone] | -0.978 | -1.79 | -0.201 | -1.49
20 | CNCc1ccc(-c2cc(-c3nc(-c4ccc(S(=O)(=O)C(C)C)cc4)cnc3N)on2)cc1 | -0.361 | -0.338 | 0.145 | -0.482
21 | CCOC(=O)C1OC1C(=O)NC(CC(C)C)C(=O)NCCC(C)C (stereo unspecified) [Aloxistatin] | 0.143 | -0.262 | -0.141 | 0.025
22 | CC(C)C[C@H](NC(=O)CNC(=O)c1cc(Cl)ccc1Cl)B(O)O | -0.0724 | 0.31 | 0.0184 | -0.12
23 | Oc1ccc(OC2CCCCO2)cc1 (stereo unspecified) [Deoxyarbutin] | -0.0497 | -0.227 | 0.7 | 0.0641
24 | CO[C@H]1/C=C\C=C(\C)C(=O)NC2=CC(=O)C(NCCN(C)C)=C(C[C@@H](C)C[C@H](OC)[C@H](O)[C@@H](C)/C=C(\C)[C@@H]1OC(N)=O)C2=O.Cl [17-DMAG (Alvespimycin) HCl] | -0.0861 | 0.118 | 0.135 | 0.712

2 records drawn at random from those above:
Row | Compound | OMR-Perf [1] | Prob-Test [2] | Prob-Naive [3] | Prob-Train [4]
6 | C[N+](C)(C)CCCCCC[N+](C)(C)C.[Br-].[Br-] [Hexamethonium bromide] | -0.369 | 0.62 | -0.288 | 0.928
15 | Cl.Clc1cccc(Cl)c1NC1=NCCN1 [Clonidine HCl] | -0.45 | -0.775 | -0.354 | -0.889
